Values from PubChem BioAssay AID1671195 (Yale University, 2021).
The deposit covers about 22,000 reagents; below is a part drawn at random. Of all reagents, about 1,510 (6.9%) are marked active. 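Active includes knockdowns raising or lowering LDL uptake; positive z-scores mean more uptake, negative mean less.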 Reagent sequences are not shown.

Assay: 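Genes whose knockdown alters LDL uptake in liver cancer cells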 (primary screen)
Cell system: human Huh7 hepatoma cells
Reagents: siRNA pool against human genes, 18 nM
Timing: about 2 to 2.5 days of knockdown, then 8 h LDL uptake
Treatment: DiI-labelled LDL at 30 µg/ml for 8 h, in lipoprotein-deficient serum medium
Measured: 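Per-cell DiI-LDL intensity by automated imaging; well means scaled to the plate median and given as a robust z-score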
Reading the numbers: robust z-score: higher = more LDL uptake after knockdown
Rule for the call: 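Active when two or more replicates show a robust z-score above 2 or below -2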

robust z-score, replicate 1	robust z-score, replicate 2	robust z-score, replicate 3	Outcome	target	PubChem SID
0.986	0.284	-1.79	inactive	CALHM2 (calcium homeostasis modulator family member 2)	SID442895477
-0.847	-1.05	-0.634	inactive	B4GALT1 (beta-1,4-galactosyltransferase 1)	SID442901055
1.27	0.398	-0.129	inactive	VAX2 (ventral anterior homeobox 2)	SID442889771
6.24	3.19	5.69	active	CHST14 (carbohydrate sulfotransferase 14)	SID442883125
0.0645	0.68	0.548	inactive	PRR15L (proline rich 15 like)	SID442890345
-0.588	0.208	0.616	inactive	HEY2	SID442893187
0.0126	-0.131	0.297	inactive	NBPF18P (NBPF member 18, pseudogene)	SID442893368
-0.122	-0.314	-0.05	inactive	ING5 (inhibitor of growth family member 5)	SID442895355
-0.414	-1.55	-0.892	inactive	IL1R2 (interleukin 1 receptor type 2)	SID442901753
-1.26	-2.41	-1.1	inactive	KRT8P45 (keratin 8 pseudogene 45)	SID442904337
0.49	0.345	0.28	inactive	IGFBP3 (insulin like growth factor binding protein 3)	SID442890758
0.926	0.373	0.52	inactive	CGNL1 (cingulin like 1)	SID442889141
0.627	-0.0751	-0.0757	inactive	LOC441036 (retired record)	SID442892505
-0.365	1.13	-0.0673	inactive	GHRH (growth hormone releasing hormone)	SID442891899
-0.542	-0.186	-0.0808	inactive	LOC401676 (retired record)	SID442896412
0.716	1.37	1.95	inactive	DCAF17 (DDB1 and CUL4 associated factor 17)	SID442885849
-1.29	-0.365	-0.259	inactive	TRIM36 (tripartite motif containing 36)	SID442899569
-0.234	-0.749	-0.229	inactive	MARCHF11 (membrane associated ring-CH-type finger 11)	SID442897603
1.87	1.55	-0.168	inactive	MOB3B (MOB kinase activator 3B)	SID442886707
-0.2	0.0121	0.0653	inactive	C2orf80 (chromosome 2 open reading frame 80)	SID442894231
0.359	1.95	0.459	inactive	BMP6 (bone morphogenetic protein 6)	SID442887396
0.25	0.313	0.184	inactive	KRT18 (keratin 18)	SID442891748
-0.46	-0.292	0.00742	inactive	ABR (ABR activator of RhoGEF and GTPase)	SID442896205
0.428	1.52	0.507	inactive	FAM106A (family with sequence similarity 106 member A)	SID442887901
0.00259	0.569	0.32	inactive	SH3RF1 (SH3 domain containing ring finger 1)	SID442891351
0.895	1.45	1.32	inactive	CADM2 (cell adhesion molecule 2)	SID442886233
-0.226	-0.403	-0.11	inactive	RABGGTA (Rab geranylgeranyltransferase subunit alpha)	SID442896181
0.154	-0.138	-0.224	inactive	LOC442387 (retired record)	SID442894494
0.332	0.0543	0.223	inactive	IMPA1 (inositol monophosphatase 1)	SID442892143
2.06	1.36	2.55	active	IMPACT (impact RWD domain protein)	SID442884088
3.28	2.32	2.69	active	ZNF519 (zinc finger protein 519)	SID442883506
0.953	0.503	0.825	inactive	TCP10L2 (t-complex 10 like 2 (pseudogene))	SID442888233
0.235	-1.34	0.33	inactive	UBA7 (ubiquitin like modifier activating enzyme 7)	SID442896310
-0.458	-0.571	-0.498	inactive	LIAT1 (ligand of ATE1)	SID442898531
-1.37	1.5	-0.186	inactive	CERS2 (ceramide synthase 2)	SID442894025
0.263	-0.174	-0.148	inactive	SLCO1B1	SID442894039
1.08	0.242	0.307	inactive	LOC441463 (retired record)	SID442889549
0.916	-0.058	0.0521	inactive	RCAN2 (regulator of calcineurin 2)	SID442891298
-1.29	-1.67	-1.82	inactive	LOC441039 (retired record)	SID442904347
1.77	1.67	1.91	inactive	KLF10 (KLF transcription factor 10)	SID442884918
-1.21	-1.05	-0.992	inactive	APOC3 (apolipoprotein C3)	SID442902479
-1.04	-1.48	-0.891	inactive	AASDHPPT	SID442902746
2.23	0.733	-0.0674	inactive	WT1-AS (WT1 antisense RNA)	SID442887189
-0.0962	-0.11	-0.423	inactive	SLC60A1	SID442895821
-0.0196	0.336	0.119	inactive	COG5 (component of oligomeric golgi complex 5)	SID442892609

Already shown: an excerpt of the list.
robust z-score, replicate 1	robust z-score, replicate 2	robust z-score, replicate 3	Outcome	target	PubChem SID
-1.29	-1.67	-1.82	inactive	LOC441039 (retired record)	SID442904347
1.77	1.67	1.91	inactive	KLF10 (KLF transcription factor 10)	SID442884918
-1.21	-1.05	-0.992	inactive	APOC3 (apolipoprotein C3)	SID442902479
-1.04	-1.48	-0.891	inactive	AASDHPPT	SID442902746
2.23	0.733	-0.0674	inactive	WT1-AS (WT1 antisense RNA)	SID442887189

The list goes on:
robust z-score, replicate 1	robust z-score, replicate 2	robust z-score, replicate 3	Outcome	target	PubChem SID
-1.13	-1.42	-0.55	inactive	IFNA7 (interferon alpha 7)	SID442902218
1.17	1.47	1.32	inactive	TMEM207 (transmembrane protein 207)	SID442885937
-1.08	-0.808	-0.912	inactive	GUCY2GP (guanylate cyclase 2G, pseudogene)	SID442901657
-0.544	-0.27	-0.732	inactive	FGF17 (fibroblast growth factor 17)	SID442898577
-0.46	-1.03	-1.37	inactive	PROSER1 (proline and serine rich 1)	SID442901769
-0.124	0.187	0.0858	inactive	PFKFB1 (6-phosphofructo-2-kinase/fructose-2,6-biphosphatase 1)	SID442893443
0.161	0.497	0.329	inactive	OR2AG1 (olfactory receptor family 2 subfamily AG member 1)	SID442891113
0.657	1.37	0.316	inactive	GPATCH4 (G-patch domain containing 4 (gene/pseudogene))	SID442888121
-1.1	-0.931	-0.388	inactive	ADAD1 (adenosine deaminase domain containing 1)	SID442900779
0.708	2.35	1.94	inactive	CASS4 (Cas scaffold protein family member 4)	SID442885131
-1.6	-1.47	-1.45	inactive	GAS7 (growth arrest specific 7)	SID442904141
0.584	-0.969	-0.566	inactive	SSNA1 (SS nuclear autoantigen 1)	SID442896831
-1.07	-1.32	-1.35	inactive	PTRHD1 (peptidyl-tRNA hydrolase domain containing 1)	SID442903218
1.97	2.01	1.54	inactive	ZNF830 (zinc finger protein 830)	SID442884840
-0.136	-0.275	-0.384	inactive	ARHGEF15 (Rho guanine nucleotide exchange factor 15)	SID442896370
0.875	0.841	0.734	inactive	ZNF665 (zinc finger protein 665)	SID442887918
0.278	-0.167	0.523	inactive	LINC03062 (long independently transcribed non-coding RNA 3062)	SID442892071
1.26	0.734	1.25	inactive	LOC401065 (retired record)	SID442886708
0.975	0.667	0.0748	inactive	LOC400025 (retired record)	SID442889359
2.63	2.12	1.94	active	HNRNPA1P70 (heterogeneous nuclear ribonucleoprotein A1 pseudogene 70)	SID442883863
0.672	0.612	1.23	inactive	PLEKHG7 (pleckstrin homology and RhoGEF domain containing G7)	SID442887810
-0.639	-0.608	-0.287	inactive	PLEKHG7 (pleckstrin homology and RhoGEF domain containing G7)	SID442898551
0.485	1.52	2.74	inactive	GIGYF1 (GRB10 interacting GYF protein 1)	SID442885285
